{"source": "patent US20250171536A1", "biological_target": "Cyno CD117, soluble (cynoCD117 1-520) (cynomolgus monkey)", "experiment": "SPR Biacore 4000, captured antibody, soluble CD117 analyte", "note": "No constants are given. Whether binding was seen depends on the method and setting. Some binding calls cover weakened binding; strength is not graded here.", "data": [{"binder": "hu4A2 IgA2 (hu4A2-hKhA2 (P221R)) (antibody) heavy: EVQLLESGGGLVQPGGSLRLSCAASGFTFSDYGMSWVRQAPGKGLEWVSAIGYGGGGKYYADSVKGRFTISRDNSKNTLYLQMNSLRAEDTAVYYCAKDTWWLAGLFDYWGQGTLVTVSSASPTSPKVFPLSLDSTPQDGNVVVACLVQGFFPQEPLSVTWSESGQNVTARNFPPSQDASGDLYTTSSQLTLPATQCPDGKSVTCHVKHYTNSSQDVTVPCRVPPPPPCCHPRLSLHRPALEDLLLGSEANLTCTLTGLRDASGATFTWTPSSGKSAVQGPPERDLCGCYSVSSVLPGCAQPWNHGETFTCTAAHPELKTPLTANITKSGNTFRPEVHLLPPPSEELALNELVTLTCLARGFSPKDVLVRWLQGSQELPREKYLTWASRQEPSQGTTTFAVTSILRVAAEDWKKGDTFSCMVGHEALPLAFTQKTIDRLAGKPTHVNVSVVMAEVDGTCY light: EIVLTQSPGTLSLSPGKRATLSCRASQSVSNSYLAWYQQKPGQPPKLLIYWASTRESGVPDRFSGSGSGTDFTLTISSLQAEDVAVYYCQQYYSTPLTFGGGTKVEIKRTVAAPSVFIFPPSDEQLKSGTASVVCLLNNFYPREAKVQWKVDNALQSGNSQESVTEQDSKDSTYSLSSTLTLSKADYEKHKVYACEVTHQGLSSPVTKSFNRGEC", "values": [{"measurement": "binding", "value": "binds"}]}]}
